{
  "source": "patent US10538571B2",
  "about": "“Compositions and methods for neurological diseases” (Coda Biotherapeutics, Inc., priority 2017, dated 2020)",
  "key": {"[1]": {"target": "T1, engineered chimeric LGIC receptor SEQ ID NO:41 (Homo sapiens, UniProt P36544, F159M/H163T/I152M/K68T/N69T/Q70M/R155K/V154L/W156N/Y151P)", "T1 construct": "expressed in transfected cells; host or cells: Lenti-X 293T cells stably expressing YFP (H148Q/I152L) reporter; pcDNA3.1(+) plasmid", "assay": "Plate reader YFP quench plots", "format": "cell-based", "conditions": "FIG. 7", "description": "(§1) Lenti-X 293T cells (LX293T, Clontech) were maintained in DMEM containing 10% FBS and 1% penicillin/streptomycin (Invitrogen). […] The next day, the cells were transiently transfected with 0.1 μg of DNA per well using standard Fugene protocol (Promega). On the day of assay, cells were washed 2 times in 1× extracellular solution (1×ECS: 140 mM NaCl, 5 mM KCl, 1 mM MgCl2, 2 mM CaCl2, 10 mM HEPES, 10 mM glucose, pH 7.2, mOsms 300). After the last wash, 100 μL of 1×ECS was added to the wells and the plate was incubated at 37° C. for 30 min. While incubating the plate, the drugs were diluted to a 2× concentration in 1×ECS-NaI (same components as 1×ECS except the 140 mM NaCl was replaced by 140 mM NaI). The plates were then read on a Flexstation3 (Molecular Devices). Each well, 8 wells at a time, of the plate is read for 2 min using a Flexstation3 (Molecular Devices) as follows: 1) a baseline YFP fluorescence is read for 17 sec, 2) 100 μL of ligand is added, and 3) the changes in YFP fluorescence are then measured every 1.3 sec for the remaining time.\n(§2) To further tune the responsiveness of the engineered LGIC receptors to native and non-native ligands, the binding pocket of each ligand in the alpha7-nAChR was modeled and the amino acid residues that form the binding pocket were mapped. […]"}, "[2]": {"target": "T2, SEQ ID NO:33 with substitution W77M (Homo sapiens, UniProt P36544, F159M/H163T/I152M/R155K/V154L/W156N/W77M/Y151P)", "T2 construct": "expressed in transfected cells; host or cells: Lenti-X 293T (HEK293T) cells, pcDNA3.1(+) plasmid", "assay": "Plate reader YFP quench (anion reporter) assay, dose response curves", "format": "cell-based", "conditions": "FIG. 9A", "description": "as §1, §2"}},
  "note": "For at least one compound, name, drawing or mass did not settle the structure.",
  "data": [
    {"smiles": "CC(=O)OCC[N+](C)(C)C", "note": "[acetylcholine]", "values": [
      {"measurement": "response of Chimera #41 compared with Chimera #33", "setting": "[1]", "value": "responds to lower doses"},
      {"measurement": "shift in dose response compared to unmutated SEQ ID NO:33", "setting": "[2]", "value": "no shift"}
    ]}
  ]
}
